Experimental data published in paper PMC6946801.
No constants are given. Whether binding was seen depends on the method and setting. In cells and extracts the contact can be indirect. Some entries that bind do so weakly or less than the wild type. Tags and fused reporters may be left off the sequences shown.

Target: T1, Sty1-GFP genomic fusion (S. pombe) (UniProt Q09892)
T1 sequence: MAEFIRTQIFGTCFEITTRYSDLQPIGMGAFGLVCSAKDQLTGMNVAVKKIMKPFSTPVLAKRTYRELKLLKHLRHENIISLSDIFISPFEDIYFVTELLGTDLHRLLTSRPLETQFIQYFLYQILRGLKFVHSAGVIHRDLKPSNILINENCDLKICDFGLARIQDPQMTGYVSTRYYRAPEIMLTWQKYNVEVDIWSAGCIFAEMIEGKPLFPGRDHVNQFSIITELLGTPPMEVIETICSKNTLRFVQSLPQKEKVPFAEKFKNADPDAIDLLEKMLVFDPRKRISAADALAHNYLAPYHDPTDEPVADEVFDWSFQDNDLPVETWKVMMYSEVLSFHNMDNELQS
Test: co-IP; whole-cell extracts (3 mg) of vegetatively growing S. pombe in 20 mM Tris-HCl pH 8.0, 2 mM EDTA, 100 mM NaCl, 0.5% NP-40; Dynabeads protein G with polyclonal anti-GFP antibody, 2 h at 4°C; blots with anti-GFP or anti-HA

- binding: binds
B1: Rnc1-3HA genomic fusion (protein, UniProt O74919 1-398)
chain: MAYNHFSIPKNIEEKENSFFDVTFQDEPDETTSTATGIAKVSIPTPKPSTPLSTLTNGSTIQQSMTNQPEPTSQVPPISAKPPMDDATYATQQLTLRALLSTREAGIIIGKAGKNVAELRSTTNVKAGVTKAVPNVHDRVLTISGPLENVVRAYRFIIDIFAKNSTNPDGTPSDANTPRKLRLLIAHSLMGSIIGRNGLRIKLIQDKCSCRMIASKDMLPQSTERTVEIHGTVDNLHAAIWEIGKCLIDDWERGAGTVFYNPVSRLTQPLPSLASTASPQQVSPPAAPSTTSGEAIPENFVSYGAQVFPATQMPFLQQPKVTQNISIPADMVGCIIGRGGSKISEIRRTSGSKISIAKEPHDETGERMFTITGTHEENEKALFLLYQQLEMEKDRRSH
